According to patent publication US20230355711A1 (BAYLOR COLLEGE OF MEDICINE, published 2023):
Where “and” joins values, the source holds several entries; their conditions need not be identical. Equal values may be shown once. Read-outs that look alike come from different tables or passages of the source.

Columns and labels:
[1] = molecular target: T1, recombinant SARS-CoV-2 spike protein (S1S2ECD-His; Sino Biological) (SARS-CoV-2, UniProt P0DTC2 14-1213)
[2] = molecular target: T1, recombinant SARS-CoV-2 spike protein …; remark: listed apart in the source

B1: recombinant human rod domain of vimentin (rhRod) (other, not shown: small tags and cut ends)
chain: FKNTRTNEKVELQELNDRFANYIDKVRFLEQQNKILLAELEQLKGQGKSRLGDLYEEEMRELRRQVDQLTNDKARVEVERDNLAEDIMRLREKLQEEMLQREEAENTLQSFRQDVDNASLARLDLERKVESLQEEIAFLKKLHEEEIQELQAQIQEQHVQIDVDVSKPDLTAALRDVRQQYESVAAKNLQEAEEWYKSKFADLSEAANRNNDALRQAKQESTEYRRQVQSLTCEVDALKGTNESLERQMREMEENFAVEAANYQDTIGRLQDEIQNMKEEMARHLREYQDLLNVKMALDIEIATYRKLLEGE
In the case of B1, the Kd [1] is reported as 500 nM and 340 nM and the Kd [2] is reported as 400 nM and 380 nM and 280 nM and 180 nM.
